PubChem BioAssay AID1508597 – Cure First | 2020
Shown is an unselected part of the about 2,100 reagents, in one setting of the screen. 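Calls flag viability under 80% in either arm, not effects specific to rucaparib; the reference for percent is not stated.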 Some reagents were tested in more than one well and are listed for each. Reagent sequences are not shown. Not given: the 100% reference.

Test: 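Survival screen with siRNA in ovarian cancer cells derived from patients, with or without rucaparib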 (primary screen)
Cell system: human ovarian carcinoma lines grown from tumours: OCI-P5x (papillary serous) and OCI-C5x (clear cell)
Reagents: siRNA pool against human genes, 1.25 pmol siRNA per well
Time to read-out: 72 h or 96 h, depending on the cell culture
Conditions: rucaparib 20 µM (about IC30) or vehicle, present until read-out
Rucaparib or vehicle: Rucaparib
Cell line: OCI-C5x (clear cell)
Measured: 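Luminescent ATP-based viability assay read 72 or 96 h after transfection, depending on culture, given as normalised percent viability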
Direction: viability, normalised: higher = more viable cells remaining
Rule for the call: 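Active when normalised viability falls below 80 percent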
Calls: active = viability under 80%; inactive = viability 80% or more

gene	technical replicate	viability, normalised (%)	call
UCKL1	1	57.1	active
UCKL1	2	54.5	active
UCKL1	3	39.9	active
PFKFB2	1	34.5	active
PFKFB2	2	38.2	active
PFKFB2	3	49.8	active
RIF1	1	63.5	active
RIF1	2	64.6	active
RIF1	3	79.9	active
EYA1	1	43.6	active
EYA1	2	42.3	active
EYA1	3	35.3	active
PIWIL2	1	70	active
PIWIL2	2	49.1	active
PIWIL2	3	52	active
FAM91A1	1	68.9	active
FAM91A1	2	79.1	active
FAM91A1	3	64	active
CHMP1A	1	57.4	active
CHMP1A	2	55	active
CHMP1A	3	45.9	active
PRKAR1A	1	69	active
PRKAR1A	2	69.5	active
PRKAR1A	3	63.6	active
PES1	1	56.1	active
PES1	2	51.9	active
PES1	3	51	active
GRK7	1	63.5	active
GRK7	2	64.3	active
GRK7	3	58.3	active
RRM1	1	34.3	active
RRM1	2	33	active
RRM1	3	35.3	active
RBKS	1	47.5	active
RBKS	2	42.7	active
RBKS	3	61.7	active
CSNK2A1	1	59.9	active
CSNK2A1	1	61.5	active
CSNK2A1	2	50.6	active
CSNK2A1	2	39.8	active
CSNK2A1	3	39	active
CSNK2A1	3	61	active

Not a retest: an excerpt of the list.
gene	technical replicate	viability, normalised (%)	call
PES1	2	51.9	active
PES1	3	51	active
GRK7	1	63.5	active
GRK7	2	64.3	active
GRK7	3	58.3	active
